From PubChem BioAssay AID1458 (National Center for Advancing Translational Sciences (NCATS), 2008) come the findings set out here.

Structures are written as SMILES. Among all 210,000 compounds or so, about 5,900 (2.8%) were called active. About 5% were inconclusive and are not listed. Calls follow the shape of the dose curve; as a rule, active = well fitted activation curve with a large enough effect; inconclusive = small, poorly fitted or top-dose-only effect; inactive = no such curve, though single readings can be large or run the other way. The list shows a part of the results, in another mix than the full data. Entries without a call were filed so in the source.
Potency is read from the fitted curve at half-maximal effect.

A short description of this test: qHTS Assay for Enhancers of SMN2 Splice Variant Expression. Also: nearly all actives have a fitted effect of over 55% in size. As to activity change, positive = activation: % of control where 0% means no effect. To be noted: HEK293 SMN2-luciferase splicing reporter, luminescence, 30-36 h; activity change, positive = activation: at 46.1 µM (top of the series) unless noted. The method in brief:
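HEK293 cells carry an SMN2 […]–luciferase reporter in which exon 7 inclusion puts luciferase in frame. Cells were plated 10-12 h before compound addition, then incubated 30-36 h at 37C. ONE-Glo luminescence was read; sodium butyrate at 4.5 mM final served as control.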
On to `COc1ccccc1NC(=O)C1=C(C)Nc2nnnn2C1c1ccccc1OC` (centres undefined), for which the activity change, positive = activation came to 61.4%.

Regarding `CSc1ccccc1-c1nnc(-c2ccc(Cl)cc2)o1`, the Potency was active: 14.1 µM.

`CC(C)Sc1ncc(Cl)c(C(=O)Nc2nc3ccc(S(C)(=O)=O)cc3s2)n1`: the “activity change, positive = activation” value is inactive: 33.6%.

On to `CN(C)c1ccc(NC(=O)c2cccc(C(=O)Nc3ccc(N(C)C)cc3)n2)cc1`, for which the Potency is active: 14.1 µM.

On to `COC1=CCC2([N+](=O)[O-])CN(CCO)CC1([N+](=O)[O-])C2` (centres undefined), for which the activity change, positive = activation was found to be 32.9%.

Consider `COCC(C)N=C1NN=C(c2c[nH]c3ccccc23)CS1` (centres undefined), for which the activity change, positive = activation was 63%.

As for `Cc1ccc(NC(=S)NCCc2ccccc2)nc1`, the Potency was active: 25.1 µM.

On to `CSc1ccc(/C=N/NC(=O)c2cccc(Cl)c2)cc1`, for which the Potency was active: 10 µM.

Consider `O=C(COC(=O)[C@@H]1CCCN1C(=O)c1cccs1)NCCc1ccccc1`, for which the activity change, positive = activation turned out to be 38.7%.

Turning to `O=C(NC(=S)Nc1ccc(N2CCCCC2)cc1)c1ccc2c(c1)OCCO2`, the “activity change, positive = activation” value was inactive: -42.7%.

On to `COC(=O)c1cc(C(=O)OC)cc(N2C(=O)CC(N3CCN(c4ccccc4)CC3)C2=O)c1` (centres undefined), for which the activity change, positive = activation amounted to 31%.

Regarding `COc1ccc(CCn2c(C)cc(C(=O)CSc3nnnn3-c3ccccc3)c2C)cc1OC`, the activity change, positive = activation was -42%.

Turning to `O=C(O)CNC(=O)CCN1C(=O)c2ccccc2C1=O`, the activity change, positive = activation amounted to 35.8%.

For `COc1cc(NC(=O)Cn2nc(C(F)(F)F)c3c2CCCC3)cc(OC)c1OC`, the Potency entry is “inactive”.

`CCN(/C=N/c1sc2c(c1C#N)CCCCC2)CC`: the Potency was active: 11.2 µM.

`CC(C)CC(C(=O)NC(C)(C)C)N(CC1CCCO1)C(=O)c1snc(C(N)=O)c1N` (centres undefined): the “activity change, positive = activation” value is inactive: -37.6%.

As for `CCOC(=O)c1sc(NC(=O)c2ccccc2OC)nc1C`, the Potency is active: 2.51 µM.

In the case of `Cc1ccc(C(=O)OCC(=O)c2ccc(Cl)s2)s1`, the activity change, positive = activation was 27.8%.

`CCOC(=O)C1=C(c2cccc(Oc3ccccc3)c2)NC(=S)NC1C` (centres undefined): the activity change, positive = activation was -41.3%.

As to `Cn1ccnc1SCC(=O)c1ccc(Cl)cc1`, the activity change, positive = activation stood at 67.9%.

In the case of `CCC1(C)COC2(OC1)C(=O)Nc1ccccc12` (centres undefined), the activity change, positive = activation was 35.4%.

Turning to `C=CCNc1oc(/C=C/c2ccccc2)nc1C#N`, the Potency was active: 11.2 µM.

Regarding `O=C(C1CCN(CC2CC=CCC2)CC1)N(CCc1ccccc1)Cc1ccccc1` (centres undefined), the activity change, positive = activation was -46%.

Regarding `O=C(CN1CCCC1)Nc1ccc(NC(=O)Nc2ccccc2)cc1`, the activity change, positive = activation came out at 48.9%.

Consider `COc1ccc2c(COC(=O)c3n[nH]c4ccccc34)cc(=O)oc2c1`, for which the Potency was active: 20 µM.

As for `CC(=O)c1c(C)oc2ccc(NS(=O)(=O)c3ccc(C(C)C)cc3)cc12`, the “activity change, positive = activation” value was inactive: -43.1%.

In the case of `CC(C)c1ccc(C(=O)NN2C(=O)C3CCCCC3C2=O)cc1` (centres undefined), the Potency was active: 11.2 µM.

With `O=C(c1ccc2c(c1)OCO2)N1CCN(c2ccc(C(F)(F)F)cn2)CC1`, the activity change, positive = activation is -76.2%.

Consider `O=C(CN1C(=O)C(c2ccc(F)cc2)=NC12CCCC2)Nc1ccc(F)cc1`, for which the activity change, positive = activation is -80.3%.

As to `O=C(/C=C\c1ccccc1OC(=O)c1ccccc1F)c1cc2ccccc2o1`, the “activity change, positive = activation” value was inactive: -117%.

In the case of `COc1ccc2c(c1)CC/C(=C/c1ccco1)C2=O`, the Potency is active: 17.8 µM.

As for `CC(=O)N1CC=C2C(C#N)=C(N)C(C#N)(C#N)C(C)C2C1` (centres undefined), the activity change, positive = activation came to 45%.

As to `COc1ccc(NC(=O)CSc2nc(-c3ccc(OC)cc3)cc(=O)[nH]2)cc1`, the activity change, positive = activation came to 33.8%.

Take `Cc1ccc(CSCc2nnc(SCC(=O)N3CCN(c4ccccc4)CC3)n2C)cc1`: the “activity change, positive = activation” value was inactive: -46.3%.

For the molecule `COc1ccc(CNC(=O)C(c2ccco2)N(Cc2ccccc2)C(=O)Cc2cccs2)cc1` (centres undefined), the “activity change, positive = activation” value is inactive: 12%.

With `COc1ccc(C(=O)Nc2ccc3nc(C)sc3c2)cc1OC`, the activity change, positive = activation was -5.91%.

Turning to `Cc1cccc2nc(CNc3ccc(F)cc3)cn12`, the activity change, positive = activation amounted to 49.5%.

As to `CSc1ccc(Cl)c(C(=O)OCC(=O)NCc2ccco2)c1`, the activity change, positive = activation stood at 64.6%.

As for `COc1cc(NS(=O)(=O)c2ccc(N/C=C\C(=O)c3ccc(OC)c(OC)c3)cc2)nc(OC)n1`, the activity change, positive = activation was -34.3%.

On to `COc1ccccc1NS(=O)(=O)c1cccc(NC(=S)NCCN2CCOCC2)c1`, for which the activity change, positive = activation amounted to 16.1%.

As for `Cc1ccc(/C=C/c2nc3ccccc3[nH]2)o1`, the Potency was active: 3.98 µM.

Take `CC(=O)Nc1ccc(SCC(=O)Nc2sccc2C#N)cc1`: the activity change, positive = activation stood at 67.9%.

With `CC1(C)CC(=O)C(/C=N/n2cnc3ccccc3c2=O)=C(O)C1`, the activity change, positive = activation turned out to be 30.9%.

On to `COc1ccc(NC(=O)C(NC(=O)/C=C\c2ccc3c(c2)OCO3)c2ccccc2)cc1` (centres undefined), for which the Potency is active: 2 µM.

Regarding `O=c1cc(NCc2ccc3c(c2)OCO3)[nH]c(=O)n1-c1ccc(Cl)cc1`, the activity change, positive = activation was 40.4%.

With `COc1cc(C2C(C#N)=C(N)Oc3cc(O)ccc32)cc(OC)c1OC` (centres undefined), the activity change, positive = activation came to 61.2%.

`Oc1c(Cl)cc(Cl)cc1C=Nc1ccc(Br)cc1`: the activity change, positive = activation was 42.9%.

With `CC1CCCC(NC(=S)Nc2ccc(SC(F)F)cc2)C1C` (centres undefined), the activity change, positive = activation is -34.8%.

Take `CC(C(=O)Nc1nccs1)N1C(=O)C2CC=CCC2C1=O` (centres undefined): the activity change, positive = activation came out at 24.5%.

As for `O=C(Nc1ccccc1C(F)(F)F)N1CCN(c2ccc3nnc(-c4ccc(F)cc4)n3n2)CC1`, the Potency result was “inactive”.

Consider `CCCN(CCC)CC(O)Cn1cc(/C=C/C(=O)c2ccc(OCC)cc2)c2ccccc21` (centres undefined), for which the “activity change, positive = activation” value is inactive: -40.3%.

In the case of `COc1ccc(Nc2nc(N)nc(CSc3nc4cc(OC)ccc4s3)n2)cc1`, the “activity change, positive = activation” value was inactive: -68.4%.

In the case of `O=C(c1cccc(F)c1)N1CCN(C(=O)c2cc(-c3ccc(Cl)cc3Cl)on2)CC1`, the activity change, positive = activation was -38.5%.

Consider `CCCc1cc(C(=O)Cc2ccc(C(=O)OCC)o2)c(O)cc1O`, for which the activity change, positive = activation was -50.3%.
